Source: PubChem BioAssay AID2685 (National Center for Advancing Translational Sciences (NCATS), 2010)
The list shows a part of the results. These are further read-outs of the screen, such as a control signal, another cell line or another target. No call is given for them. Most of these compounds were active or inconclusive in the main read-out, so they are no random draw. Words in brackets tell the shape of the fitted curve; partial curves, single points and poor fits give uncertain potencies.

Test: qHTS Assay for Lipid Storage Modulators in Drosophila S3 Cells;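 on cell number change: cells counted by Cell Tracker Red CMTPX staining in the red channel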
Conditions: BODIPY lipid droplet fluorescence, 18-24 h; for cell number change: measured here: cell count max response, cells fed with added oleic acid
Procedure, shortened: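 Drosophila S3 cells got compounds at several concentrations plus oleic acid (400 uM solution). Laser-scanning cytometry with 488 nm excitation read lipid droplets at 500-530 nm and cells at 575-640 nm. Percent activity was relative to 20 uM Triacsin C.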

[1] = measured here: lipid fluorescence (Fed channel) AC50, cells fed with added oleic acid
[2] = measured here: cell number channel AC50, cells fed with added oleic acid

Compound | AC50 [1] | cell number change [%] | AC50 [2]
CCCN(C(=O)COC(=O)CCOc1ccccc1)c1c(N)n(Cc2ccccc2)c(=O)[nH]c1=O | 29.1 µM [falling, single point] |  | 
CCN(CC)C(=O)Cn1c(=O)n(C)c2ccccc21 | 29.1 µM [falling, single point] | -14.2 | 
CN(C)c1ccc(CNn2cnnc2SCc2ccc(F)cc2)cc1 |  | -9.12 | 
COc1ccc(C2CC(c3ccccc3Cl)Nc3ncnn32)cc1OC (configuration not stated) | 10.3 µM [falling, partial curve, poor fit] | -29.5 | 
O=C(CN1CCN(C2CCS(=O)(=O)C2)CC1)N1N=C(c2ccc(Cl)cc2)CC1c1ccco1 (configuration not stated) | 23.1 µM [falling, single point] | -8.86 | 
Cc1nc2cc(NCc3ccc(Cl)cc3)ccc2n1C | 29.1 µM [falling, single point] | -21.2 | 
Cc1ccc(CN2CC(C(=O)N3CCN(c4ccccc4Cl)CC3)CC2=O)cc1 (configuration not stated) |  | -18.1 | 
CCOC(=O)C1=C(CC)Nc2ccccc2N=C1NC(=O)c1cccc(S(=O)(=O)N2CCCC2)c1 | 16.4 µM [rising, single point] | -0.37 | 
Cc1[nH]nc(NNC(=O)c2ccccc2)c1[N+](=O)[O-] |  | -19.7 | 1.03 µM [falling, full curve, poor fit]
Cc1cc(C)c(S(=O)(=O)c2cccc(C)c2C)c(=O)[nH]1 | 7.31 µM [rising, partial curve] | 18.5 | 
CCOC(=O)N1CCN(C(=O)C(c2ccccc2)c2ccccc2)CC1 |  | 5.9 | 
C/C=C/c1ccc(OCCOc2cccc3cccnc23)c(OC)c1 | 29.1 µM [falling, single point] | -58.8 | 29.1 µM [falling, single point]
CCC(C)(C)n1nnnc1C(c1cccs1)N1CCN(c2nc3ccccc3s2)CC1 (configuration not stated) | 5.17 µM [rising, partial curve, poor fit] | -2.83 | 
O=C(NCCc1ccccc1)C1CCN(S(=O)(=O)N2CCCC2)CC1 |  | 5.83 | 
N#Cc1ccc(OCC(=O)N2CCN(c3ccc(C(F)(F)F)cn3)CC2)cc1 | 29.1 µM [rising, single point] | -1.38 | 
CCCCC(=O)NC(c1ccc(N(C)C)cc1)c1ccc2cccnc2c1O (configuration not stated) |  | -64.9 | 16.4 µM [falling, single point]
O=C(O)COc1ccc2c(-c3ccccc3)cc(=O)oc2c1 | 29.1 µM [falling, single point] | 1.07 | 
O=C(CN1C(=O)NC(c2ccccc2)(c2ccccc2)C1=O)N1CCN(c2ccc(F)cc2)CC1 | 18.4 µM [rising, single point] | -7.26 | 
O=C(Nc1ccc(-c2nnc3n2CCCCC3)cc1)c1cnccn1 | 0.00461 µM [falling, full curve, poor fit] | 1.82 | 
CC(C)C(OC(=O)c1nsc(Cl)c1Cl)C(=O)NC1CCCCC1 (configuration not stated) |  | -19.8 | 

Compound | AC50 [1] | cell number change [%] | AC50 [2]
Cc1ccc(C2NC(=O)c3c(sc4c3CCN(C)C4)N2)s1 (configuration not stated) | 5.8 µM [falling, single point] | -1.65 | 
CC(=O)c1ccc(N2CCC(C)CC2)c(F)c1 |  | -30.4 | 
Cc1cccc(N2CCN(C(=O)CN3C(=O)NC(C)(C4CC4)C3=O)CC2)c1C (configuration not stated) | 29.1 µM [rising, single point] | 2.03 | 
Cc1cccc(N2CC(C(=O)Nc3nnc(SCc4ccccn4)s3)CC2=O)c1 (configuration not stated) |  | 21.1 | 
COC(=O)c1ccc(NC(=O)CSc2nnc(C)n2-c2ccccc2)cc1 |  | -0.644 | 5.8 µM [rising, single point]
COc1cccc(NC(=O)NNC(=O)c2ccc3c(c2)NC(=O)C(C)(C)O3)c1 |  | -37.2 | 5.8 µM [falling, partial curve, poor fit]
Cc1cc2ncn(S(=O)(=O)N3CCCCC3)c2cc1C |  |  | 4.11 µM [rising, single point]
C=CCn1c(SCc2ccccc2)nnc1-c1cccnc1 |  |  | 0.103 µM [rising, full curve, poor fit]
COc1ccc(Cc2noc(CN(C)CC3CCN(Cc4ccccc4)CC3)n2)cc1OC | 23.1 µM [rising, single point] |  | 
CC(NC(=O)c1cccnc1)C(c1ccccc1)N1CCN(C)CC1 (configuration not stated) | 23.1 µM [falling, partial curve] |  | 
Cc1ccc2c(C)c(C(=O)NCCc3ccco3)oc2c1C | 13 µM [rising, partial curve, poor fit] | -0.587 | 
CCCCN(C(=O)COC(=O)CSc1ccc([N+](=O)[O-])cc1)c1c(N)n(CCC)c(=O)[nH]c1=O | 20.6 µM [falling, partial curve] | -45.9 | 25.9 µM [falling, partial curve, poor fit]
CC(C)(C)NC(=S)NCc1ccc2c(c1)OCO2 | 18.4 µM [rising, partial curve] | 32.1 | 25.9 µM [rising, single point]
CCCN1Cc2cccc(C(=O)Nc3ccc(C)cc3)c2C1=O | 0.13 µM [rising, full curve, poor fit] |  | 0.259 µM [rising, full curve]
O=C(c1ccc2c(c1)N(Cc1ccccc1)CCS2)N1CCOCC1 | 3.26 µM [falling, single point] | -38 | 32.6 µM [falling, single point]
Cc1ccc(P(=O)(CO)c2ccc(C)cc2)cc1 | 18.4 µM [falling, single point] | 20.1 | 
COc1ccc(CCNc2cc(C)nc3c(-c4ccccc4)cnn23)cc1OC | 6.51 µM [rising, single point] | 2.87 | 
N#Cc1ccccc1NC(=O)CSC1=Nc2ccccc2C2CC=NN12 (configuration not stated) |  | 32.1 | 0.366 µM [rising, full curve, poor fit]
COc1ccc(Cn2nc(C)n(N(C)c3ncc(C(F)(F)F)cc3Cl)c2=O)cc1 | 6.51 µM [rising, single point] | 29.9 | 
CCOc1ccc(NC(=O)CN(C)C(=O)c2ccc(OCc3ccccc3)c(OC)c2)cc1OCC |  | -75 | 29.1 µM [falling, partial curve, poor fit]

3 of the compounds above, as tab-separated lines:
Compound	AC50 [1]	cell number change [%]	AC50 [2]
CC(NC(=O)c1cccnc1)C(c1ccccc1)N1CCN(C)CC1 (configuration not stated)	23.1 µM [falling, partial curve]		
Cc1ccc2c(C)c(C(=O)NCCc3ccco3)oc2c1C	13 µM [rising, partial curve, poor fit]	-0.587	
CCCCN(C(=O)COC(=O)CSc1ccc([N+](=O)[O-])cc1)c1c(N)n(CCC)c(=O)[nH]c1=O	20.6 µM [falling, partial curve]	-45.9	25.9 µM [falling, partial curve, poor fit]
